Results deposited as PubChem BioAssay AID504784 (Drosophila RNAi Screening Center, 2011).

- Purpose: 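Genome-wide knock-down for genes giving too much or too little stored lipid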 (primary screen)
- Cell system: Drosophila Kc167 embryonic cells
- Knock-down reagent: long dsRNA against Drosophila genes, about 250 ng dsRNA per well
- Time to read-out: 4 days
- Challenge: cells fed 400 µM oleic acid bound to BSA
- Read-out: 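Cells imaged and segmented; ratio of lipid droplet area to nuclear area, log-transformed, then normalised as a B-score over the screen; higher means more stored lipid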
- Reading the numbers: droplet/nuclear area B-score: higher = more stored lipid (overstorage)
The deposit covers about 17,000 reagents; this is a random part of those with a known target gene and a result. 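Each column is one replicate's B-score; the combined score over replicates was not deposited, so single values may mislead.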 Names joined by + are all predicted targets of the reagent.

target	DRSC id	droplet/nuclear area B-score, replicate 1	droplet/nuclear area B-score, replicate 2	droplet/nuclear area B-score, replicate 3
Prx1 (Peroxiredoxin 1)	DRSC10741	0.314	-0.495	
CG9926	DRSC16582	-6.11		
CG33557	DRSC17854	-1.85	-2.56	-0.253
CG17598	DRSC20636	0.0196	0.274	
Btnd (Biotinidase)	DRSC18316	0.122	0.000189	
CG9240	DRSC20177	2.96	6.24	
GCS2alpha (Glucosidase 2 alpha subunit)	DRSC21036	-0.392	-1.31	
rngo (rings lost)	DRSC19903	-0.00618	1.56	
sc (scute)	DRSC18830	-0.0273	1.76	
awd (abnormal wing discs)	DRSC16906	1.47	-0.0273	
Rsf1 (Repressor splicing factor 1)	DRSC03423	0.729	0.692	
Rsf1 (Repressor splicing factor 1)	DRSC21953	1.86	0.457	
CG42525	DRSC08026	-0.0448	-0.0246	
Vha100-2 (Vacuolar H[+] ATPase 100kD subunit 2)	DRSC14152	-0.0916	-0.411	

Copied from the list:
For “droplet/nuclear area B-score, replicate 1”, Rsf1 (Repressor splicing factor 1) [DRSC21953] is entered as 1.86
Under “droplet/nuclear area B-score, replicate 2”, CG17598 [DRSC20636] is entered as 0.274

Additional reagents:
target	DRSC id	droplet/nuclear area B-score, replicate 1	droplet/nuclear area B-score, replicate 2	droplet/nuclear area B-score, replicate 3
RpL3 + CG6693	DRSC16097	-0.000816	-0.0197	
CG32021 (retired record)	DRSC17206	-1.45	-3.07	
tra (transformer)	DRSC11405	-0.124	-0.468	
wgn (wengen)	DRSC19998	-0.012	-0.534	
ccb (central complex broad)	DRSC20501	-1.86	-0.885	
pyr (pyramus)	DRSC06319	-1.06	1.99	-0.765
pyr (pyramus)	DRSC22520	1.12	-0.888	
ppk8 (pickpocket 8)	DRSC17269	-0.848	-1.13	
Phs (Phaser)	DRSC10827	-1.02	0.796	-1.35
CG18480	DRSC01957	0.498	3.13	
CG3355	DRSC00598	-1.44	-0.571	
Sgsh (N-sulfoglucosamine sulfohydrolase)	DRSC14771	0.372	-0.449	
Tl (Toll)	DRSC16885	-1.06	-0.688	
HDAC6 (Histone deacetylase 6)	DRSC20252	0.01	-0.746	0.0391
Cyt-c-p (Cytochrome c proximal)	DRSC03310	7.73	2.24	
wal (walrus)	DRSC07717	-0.0476	0.197	
Slh (SLY-1 homologous)	DRSC00789	2.54	0.417	
CG14062	DRSC14725	0.211	0.458	
fy (fuzzy)	DRSC03533	0.0887	0.749	
CG42699	DRSC18076	-0.645	1.46	-0.986
CG42699	DRSC18341	-1.09	-0.451	
